According to paper PMC7493855:
These are yes or no findings as the source states them, for the method shown. Binding seen in cells or lysates may run through a third protein. These calls come from enrichment with a bait or labelling near it, and not all partners need be listed.

The chains behind the UniProt entries cited, without tags or fusion partners. Where a name states a change or a piece, a line headed by the entry shows the natural chain unless it says otherwise.
UniProt Q3URK3: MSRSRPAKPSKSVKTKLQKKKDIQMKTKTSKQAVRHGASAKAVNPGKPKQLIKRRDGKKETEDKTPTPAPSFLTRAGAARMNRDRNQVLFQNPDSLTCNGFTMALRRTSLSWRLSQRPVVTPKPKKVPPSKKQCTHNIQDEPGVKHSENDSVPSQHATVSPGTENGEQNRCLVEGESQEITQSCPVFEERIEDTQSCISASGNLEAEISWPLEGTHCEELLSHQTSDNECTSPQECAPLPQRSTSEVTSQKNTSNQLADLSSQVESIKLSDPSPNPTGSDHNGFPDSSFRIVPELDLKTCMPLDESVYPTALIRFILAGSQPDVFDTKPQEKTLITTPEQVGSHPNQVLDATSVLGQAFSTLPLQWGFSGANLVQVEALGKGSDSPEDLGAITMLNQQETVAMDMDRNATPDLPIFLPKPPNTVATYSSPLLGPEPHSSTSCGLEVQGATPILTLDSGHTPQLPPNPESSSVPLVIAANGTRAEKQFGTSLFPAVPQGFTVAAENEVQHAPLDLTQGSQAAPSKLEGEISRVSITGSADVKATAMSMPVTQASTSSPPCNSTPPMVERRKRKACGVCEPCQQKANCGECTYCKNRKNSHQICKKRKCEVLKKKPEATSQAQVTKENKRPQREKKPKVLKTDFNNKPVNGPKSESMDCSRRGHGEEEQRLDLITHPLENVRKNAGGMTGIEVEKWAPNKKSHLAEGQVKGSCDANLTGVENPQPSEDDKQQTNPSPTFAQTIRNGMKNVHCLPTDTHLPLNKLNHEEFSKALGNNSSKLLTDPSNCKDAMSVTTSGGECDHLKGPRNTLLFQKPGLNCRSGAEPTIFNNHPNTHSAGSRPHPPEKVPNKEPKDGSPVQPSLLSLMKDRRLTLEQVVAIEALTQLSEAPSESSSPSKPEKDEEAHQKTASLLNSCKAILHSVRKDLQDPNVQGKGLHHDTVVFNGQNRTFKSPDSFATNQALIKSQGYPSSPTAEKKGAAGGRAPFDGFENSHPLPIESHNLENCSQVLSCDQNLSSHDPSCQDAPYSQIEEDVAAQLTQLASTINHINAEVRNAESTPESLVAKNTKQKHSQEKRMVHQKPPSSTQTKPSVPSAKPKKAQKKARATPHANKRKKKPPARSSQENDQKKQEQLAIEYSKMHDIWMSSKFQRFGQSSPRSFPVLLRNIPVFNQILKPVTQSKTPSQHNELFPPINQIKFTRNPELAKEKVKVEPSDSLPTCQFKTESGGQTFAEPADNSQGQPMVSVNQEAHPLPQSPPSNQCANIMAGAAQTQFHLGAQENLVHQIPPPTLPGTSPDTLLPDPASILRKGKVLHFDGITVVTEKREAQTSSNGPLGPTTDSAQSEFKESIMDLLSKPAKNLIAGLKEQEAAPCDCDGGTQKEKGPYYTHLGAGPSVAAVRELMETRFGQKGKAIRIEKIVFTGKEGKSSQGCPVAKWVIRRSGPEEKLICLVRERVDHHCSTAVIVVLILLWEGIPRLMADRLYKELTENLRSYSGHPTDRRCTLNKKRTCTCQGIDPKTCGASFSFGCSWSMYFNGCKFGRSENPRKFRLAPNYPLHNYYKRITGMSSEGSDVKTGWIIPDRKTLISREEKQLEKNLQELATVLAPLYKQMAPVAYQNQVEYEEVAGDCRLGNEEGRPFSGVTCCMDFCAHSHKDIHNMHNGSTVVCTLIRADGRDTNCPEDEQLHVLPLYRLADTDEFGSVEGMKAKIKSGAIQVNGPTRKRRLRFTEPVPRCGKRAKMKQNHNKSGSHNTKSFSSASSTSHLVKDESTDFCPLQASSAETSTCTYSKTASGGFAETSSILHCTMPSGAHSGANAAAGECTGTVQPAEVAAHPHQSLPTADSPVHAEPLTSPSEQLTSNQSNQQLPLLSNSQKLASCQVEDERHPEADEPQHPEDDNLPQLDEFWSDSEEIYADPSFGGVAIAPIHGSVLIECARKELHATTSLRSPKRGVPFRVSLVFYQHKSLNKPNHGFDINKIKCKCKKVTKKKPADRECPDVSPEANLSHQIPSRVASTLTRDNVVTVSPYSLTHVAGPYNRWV
UniProt O09106: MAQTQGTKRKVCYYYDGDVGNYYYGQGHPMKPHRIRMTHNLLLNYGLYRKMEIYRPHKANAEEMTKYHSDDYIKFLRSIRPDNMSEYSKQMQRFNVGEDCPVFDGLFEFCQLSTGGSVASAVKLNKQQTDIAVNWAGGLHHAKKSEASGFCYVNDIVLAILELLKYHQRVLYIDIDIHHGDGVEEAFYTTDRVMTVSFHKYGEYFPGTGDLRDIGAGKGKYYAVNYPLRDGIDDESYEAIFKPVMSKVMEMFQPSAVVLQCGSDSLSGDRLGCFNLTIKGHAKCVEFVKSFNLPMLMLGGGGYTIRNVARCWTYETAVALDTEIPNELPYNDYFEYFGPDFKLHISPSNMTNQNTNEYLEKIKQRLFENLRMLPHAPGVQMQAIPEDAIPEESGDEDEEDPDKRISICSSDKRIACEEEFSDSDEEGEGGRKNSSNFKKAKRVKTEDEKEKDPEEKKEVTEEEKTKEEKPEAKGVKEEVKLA
UniProt Q91W53: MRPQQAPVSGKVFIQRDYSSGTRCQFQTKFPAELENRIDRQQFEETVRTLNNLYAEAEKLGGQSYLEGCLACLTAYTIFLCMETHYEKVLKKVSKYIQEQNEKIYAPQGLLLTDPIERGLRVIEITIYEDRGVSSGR
UniProt P05201: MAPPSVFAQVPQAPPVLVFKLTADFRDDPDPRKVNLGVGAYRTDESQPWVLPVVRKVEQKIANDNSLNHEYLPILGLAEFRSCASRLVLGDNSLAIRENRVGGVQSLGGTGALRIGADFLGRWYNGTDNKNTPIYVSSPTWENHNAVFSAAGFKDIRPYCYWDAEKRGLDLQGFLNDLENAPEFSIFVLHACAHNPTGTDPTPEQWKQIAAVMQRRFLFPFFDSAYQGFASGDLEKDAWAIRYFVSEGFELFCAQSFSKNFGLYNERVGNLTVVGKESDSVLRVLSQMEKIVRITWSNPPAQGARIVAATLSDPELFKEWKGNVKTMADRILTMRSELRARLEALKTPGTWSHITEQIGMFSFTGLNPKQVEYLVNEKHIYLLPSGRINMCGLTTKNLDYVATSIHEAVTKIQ
UniProt P97493: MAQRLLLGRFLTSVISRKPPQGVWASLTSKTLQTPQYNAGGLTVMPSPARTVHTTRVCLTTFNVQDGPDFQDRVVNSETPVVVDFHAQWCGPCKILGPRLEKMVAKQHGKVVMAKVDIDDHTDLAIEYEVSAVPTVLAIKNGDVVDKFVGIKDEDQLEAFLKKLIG
UniProt P47955: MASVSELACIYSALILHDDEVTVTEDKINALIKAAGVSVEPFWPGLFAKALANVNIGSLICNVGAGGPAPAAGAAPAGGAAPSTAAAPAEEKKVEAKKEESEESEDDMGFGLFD
UniProt Q91ZW3: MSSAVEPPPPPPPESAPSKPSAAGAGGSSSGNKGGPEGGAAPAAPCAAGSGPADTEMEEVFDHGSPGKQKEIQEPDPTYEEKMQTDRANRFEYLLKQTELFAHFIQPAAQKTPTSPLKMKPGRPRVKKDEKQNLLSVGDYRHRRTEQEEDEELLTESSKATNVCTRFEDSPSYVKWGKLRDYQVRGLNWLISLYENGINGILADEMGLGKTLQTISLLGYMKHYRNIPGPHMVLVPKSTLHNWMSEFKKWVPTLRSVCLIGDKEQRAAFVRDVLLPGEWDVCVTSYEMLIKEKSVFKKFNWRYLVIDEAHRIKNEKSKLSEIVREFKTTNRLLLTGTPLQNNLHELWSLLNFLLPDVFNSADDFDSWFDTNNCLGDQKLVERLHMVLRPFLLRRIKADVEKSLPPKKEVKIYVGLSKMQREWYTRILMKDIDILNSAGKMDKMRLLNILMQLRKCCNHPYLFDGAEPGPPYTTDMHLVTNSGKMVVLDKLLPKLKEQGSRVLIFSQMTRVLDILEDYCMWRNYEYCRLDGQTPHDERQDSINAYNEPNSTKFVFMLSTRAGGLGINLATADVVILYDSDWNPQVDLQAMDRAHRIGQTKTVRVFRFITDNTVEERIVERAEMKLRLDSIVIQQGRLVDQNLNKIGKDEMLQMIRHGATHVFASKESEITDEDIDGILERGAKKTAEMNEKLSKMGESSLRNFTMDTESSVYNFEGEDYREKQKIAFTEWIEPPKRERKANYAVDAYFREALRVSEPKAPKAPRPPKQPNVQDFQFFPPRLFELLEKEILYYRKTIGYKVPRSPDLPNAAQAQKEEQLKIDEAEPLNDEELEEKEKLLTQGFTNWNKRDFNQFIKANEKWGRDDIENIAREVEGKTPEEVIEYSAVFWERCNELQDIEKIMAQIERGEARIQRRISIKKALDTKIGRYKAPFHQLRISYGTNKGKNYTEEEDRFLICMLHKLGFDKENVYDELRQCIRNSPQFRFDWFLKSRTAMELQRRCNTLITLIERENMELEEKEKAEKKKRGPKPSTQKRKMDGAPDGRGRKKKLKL
UniProt Q9QYJ3: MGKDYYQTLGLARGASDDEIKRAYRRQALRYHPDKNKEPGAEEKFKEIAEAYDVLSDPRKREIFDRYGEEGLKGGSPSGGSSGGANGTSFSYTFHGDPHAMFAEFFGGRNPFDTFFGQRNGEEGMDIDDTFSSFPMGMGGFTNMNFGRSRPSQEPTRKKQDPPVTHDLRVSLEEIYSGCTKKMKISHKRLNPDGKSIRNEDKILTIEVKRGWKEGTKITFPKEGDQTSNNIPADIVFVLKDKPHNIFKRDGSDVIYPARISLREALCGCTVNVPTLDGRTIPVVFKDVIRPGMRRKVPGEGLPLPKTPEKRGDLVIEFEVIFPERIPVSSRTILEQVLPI
UniProt P63024: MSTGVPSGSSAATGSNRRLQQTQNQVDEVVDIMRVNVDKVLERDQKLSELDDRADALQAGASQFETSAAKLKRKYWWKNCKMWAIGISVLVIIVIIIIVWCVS

B1: Gsr (protein, UniProt P47791 27-500)
chain: MASPGEPQPPAPDTSSFDYLVIGGGSGGLASARRAAELGARAAVVESHKLGGTCVNVGCVPKKVMWNTAVHSEFMHDHVDYGFQSCEGKFSWHVIKQKRDAYVSRLNTIYQNNLTKSHIEIIHGYATFADGPRPTVEVNGKKFTAPHILIATGGVPTVPHESQIPGASLGITSDGFFQLEDLPSRSVIVGAGYIAVEIAGILSALGSKTSLMIRHDKVLRNFDSLISSNCTEELENAGVEVLKFTQVKEVKKTSSGLELQVVTSVPGRKPTTTMIPDVDCLLWAIGRDPNSKGLNLNKVGIQTDEKGHILVDEFQNTNVKGVYAVGDVCGKALLTPVAIAAGRKLAHRLFECKQDSKLDYDNIPTVVFSHPPIGTVGLTEDEAVHKYGKDNVKIYSTAFTPMYHAVTTRKTKCVMKMVCANKEEKVVGIHMQGIGCDEMLQGFAVAVKMGATKADFDNTVAIHPTSSEELVTLR
B2: Gm2a (protein, UniProt Q60648 21-193)
chain: ARLVPKRLSQLGGFSWDNCDEGKDPAVIKSLTIQPDPIVVPGDVVVSLEGKTSVPLTAPQKVELTVEKEVAGFWVKIPCVEQLGSCSYENICDLIDEYIPPGESCPEPLHTYGLPCHCPFKEGTYSLPTSNFTVPDLELPSWLSTGNYRIQSILSSGGKRLGCIKIAASLKGR
B3: Apoe (protein, UniProt P08226 19-311)
chain: EGEPEVTDQLEWQSNQPWEQALNRFWDYLRWVQTLSDQVQEELQSSQVTQELTALMEDTMTEVKAYKKELEEQLGPVAEETRARLGKEVQAAQARLGADMEDLRNRLGQYRNEVHTMLGQSTEEIRARLSTHLRKMRKRLMRDAEDLQKRLAVYKAGAREGAERGVSAIRERLGPLVEQGRQRTANLGAGAAQPLRDRAQAFGDRIRGRLEEVGNQARDRLEEVREHMEEVRSKMEEQTQQIRLQAEIFQARLKGWFEPIVEDMHRQWANLMEKIQASVATNPIITPVAQENQ
B4: Cst3 (protein, UniProt P21460 21-140)
chain: ATPKQGPRMLGAPEEADANEEGVRRALDFAVSEYNKGSNDAYHSRAIQVVRARKQLVAGVNYFLDVEMGRTTCTKSQTNLTDCPFHDQPHLMRKALCSFQIYSVPWKGTHSLTKFSCKNA
B5: Atp8a1 (protein, UniProt P70704 1-1164)
chain: MPTMRRTVSEIRSRAEGYEKTDDVSEKTSLADQEEVRTIFINQPQLTKFCNNHVSTAKYNVITFLPRFLYSQFRRAANSFFLFIALLQQIPDVSPTGRYTTLVPLLFILAVAAIKEIIEDIKRHKADNAVNKKQTQVLRNGAWEIVHWEKVAVGEIVKVTNGEHLPADLLSLSSSEPQAMCYIETSNLDGETNLKIRQGLPATSDIKDIDSLMRISGRIECESPNRHLYDFVGNIRLDGHGTVPLGADQILLRGAQLRNTQWVHGIVVYTGHDTKLMQNSTSPPLKLSNVERITNVQILILFCILIAMSLVCSVGSAIWNRRHSGKDWYLHLHYGGASNFGLNFLTFIILFNNLIPISLLVTLEVVKFTQAYFINWDLDMHYEPTDTAAMARTSNLNEELGQVKYIFSDKTGTLTCNVMQFKKCTIAGVAYGHVPEPEDYGCSPDEWQSSQFGDEKTFNDPSLLDNLQNNHPTAPIICEFLTMMAVCHTAVPEREGDKIIYQAASPDEGALVRAAKQLNFVFTGRTPDSVIIDSLGQEERYELLNVLEFTSARKRMSVVVRTPSGKLRLYCKGADTVIYERLAETSKYKEITLKHLEQFATEGLRTLCFAVAEISESDFEEWRAVYHRASTSVQNRLLKLEESYELIEKNLQLLGATAIEDKLQDQVPETIETLMKADIKIWILTGDKQETAINIGHSCRLLKRNMGMIVINEGSLDGTRETLSRHCTTLGDALRKENDFALIIDGKTLKYALTFGVRQYFLDLALSCKAVICCRVSPLQKSEVVEMVKKQVKVITLAIGDGANDVSMIQTAHVGVGISGNEGLQAANSSDYSIAQFKYLKNLLMVHGAWNYNRVSKCILYCFYKNIVLYIIEIWFAFVNGFSGQILFERWCIGLYNVMFTAMPPLTLGIFERSCRKENMLKYPELYKTSQNALDFNTKVFWVHCLNGLFHSVILFWFPLKALQYGTVFGNGKTSDYLLLGNFVYTFVVITVCLKAGLETSYWTWFSHIAIWGSIALWVVFFGIYSSLWPAVPMAPDMSGEAAMLFSSGVFWVGLLSIPVASLLLDVLYKVIKRTAFKTLVDEVQELEAKSQDPGAVVLGKSLTERAQLLKNVFKKNHVNLYRSESLQQNLLHGYAFSQDENGIVSQSEVIRAYDTTKQRPDEW
B6: Dnajc2 (protein, UniProt P54103 1-621)
chain: MLLLPSAAEGQGTAITHALTSASSVCQVEPVGRWFEAFVKRRNRNASTSFQELEDKKELSEESEDEELQLEEFPMLKTLDPKDWKNQDHYAVLGLGHVRYTATQRQIKAAHKAMVLKHHPDKRKAAGEPIKEGDNDYFTCITKAYEMLSDPVKRRAFNSVDPTFDNSVPSKSEAKDNFFQVFSPVFERNSRWSNKKNVPKLGDMNSSFEDVDAFYSFWYNFDSWREFSYLDEEEKEKAECRDERKWIEKQNRATRAQRKKEEMNRIRTLVDNAYSCDPRIKKFKEEEKAKKEAEKKAKAEARRKEQEAKEKQRQAELEAVRLAKEKEEEEVRQQALLAKKEKDIQKKAIKKERQKLRNSCKSWNHFSDNEADRVKMMEEVEKLCDRLELASLQGLNEILASSTREVGKAALEKQIEEVNEQMRREKEEADARMRQASKNAEKSTGGSGSGSKNWSEDDLQLLIKAVNLFPAGTNSRWEVIANYMNIHSSSGVKRTAKDVISKAKSLQKLDPHQKDDINKKAFDKFKKEHGVASQADSAAPSERFEGPCIDSTPWTTEEQKLLEQALKTYPVNTPERWEKIAEAVPGRTKKDCMRRYKELVEMVKAKKAAQEQVLNASRARK
B7: Abcb6 (protein, UniProt Q9DC29 1-842)
chain: MVTVGNYCETEGPAGPAWTQNGLSPCFFFTLVPSTLLTLGVLALVLVLPRRRREVPAGPEELSWAAGPRVAPYVLQLFLATLQMALPLAGLAGRVGTARGVRLPGYLLLASVLESLASVCGLWLLVVERSQARQSLAMGVWMKFRHSLGLLLLWTVTFAAENLALVSWNSPQWWWARADLGQQVQFGLWVLRYVTSGGLFILGLWAPGLRPQSYTLHVHEEDQDVGGNQGRSTDRRSTWRDLGRKLRLLSSYLWPRGSPSLQLIVLICLGLMGLERALNVLVPIFYRDIVNLLTAKAPWSSLAWTVTTYVFLKFLQGGGTGSTGFVSNLRTFLWIRVQQFTSRGVELRLFSHLHELSLRWHLGRRTGEVLRIVDRGTSSVTGLLSYLVFSIIPTLADIIIGIIYFSMFFNAWFGLIVFLCMSLYLILTIVVTEWRAKFRRDMNTQENATRARAVDSLLNFETVKYYGAEGYEVDRYREAILKFQGLEWKSTASLVVLNQTQNLVIGLGLLAGSLLCAYFVSEQKLQVGDFVLFGTYITQLYMPLNWFGTYYRMIQTNFIDMENMFDLLKEETEVKDVPGAGPLRFHKGRIEFENVHFSYADGQETLQDVSFTVMPGQTVALVGPSGAGKSTILRLLFRFYDISSGCIRIDGQDISQVTQISLRSHIGVVPQDTVLFNDTIANNIRYGRVTAGDSEVEAAAQAAGIHDAILSFPEGYETQVGERGLKLSGGEKQRVAIARTILKAPDIILLDEATSALDTSNERAIQASLAKVCTNRTTIVIAHRLSTVVNADQILVIKDGCIIERGRHEALLSRGGVYAEMWQLQQQGQETVPEESKPQDTA
B8: Acly (protein, UniProt Q91V92 1-1091)
chain: MSAKAISEQTGKELLYKYICTTSAIQNRFKYARVTPDTDWAHLLQDHPWLLSQSLVVKPDQLIKRRGKLGLVGVNLSLDGVKSWLKPRLGHEATVGKAKGFLKNFLIEPFVPHSQAEEFYVCIYATREGDYVLFHHEGGVDVGDVDAKAQKLLVGVDEKLNTEDIKRHLLVHAPEDKKEVLASFISGLFNFYEDLYFTYLEINPLVVTKDGVYILDLAAKVDATADYICKVKWGDIEFPPPFGREAYPEEAYIADLDAKSGASLKLTLLNPKGRIWTMVAGGGASVVYSDTICDLGGVNELANYGEYSGAPSEQQTYDYAKTILSLMTREKHPEGKILIIGGSIANFTNVAATFKGIVRAIRDYQGPLKEHEVTIFVRRGGPNYQEGLRVMGEVGKTTGIPIHVFGTETHMTAIVGMALGHRPIPNQPPTAAHTANFLLNASGSTSTPAPSRTASFSESRADEVAPAKKAKPAMPQGKSATLFSRHTKAIVWGMQTRAVQGMLDFDYVCSRDEPSVAAMVYPFTGDHKQKFYWGHKEILIPVFKNMADAMKKHPEVDVLINFASLRSAYDSTMETMNYAQIRTIAIIAEGIPEALTRKLIKKADQKGVTIIGPATVGGIKPGCFKIGNTGGMLDNILASKLYRPGSVAYVSRSGGMSNELNNIISRTTDGVYEGVAIGGDRYPGSTFMDHVLRYQDTPGVKMIVVLGEIGGTEEYKICRGIKEGRLTKPVVCWCIGTCATMFSSEVQFGHAGACANQASETAVAKNQALKEAGVFVPRSFDELGEIIQSVYEDLVAKGAIVPAQEVPPPTVPMDYSWARELGLIRKPASFMTSICDERGQELIYAGMPITEVFKEEMGIGGVLGLLWFQRRLPKYSCQFIEMCLMVTADHGPAVSGAHNTIICARAGKDLVSSLTSGLLTIGDRFGGALDAAAKMFSKAFDSGIIPMEFVNKMKKEGKLIMGIGHRVKSINNPDMRVQILKDFVKQHFPATPLLDYALEVEKITTSKKPNLILNVDGFIGVAFVDMLRNCGSFTREEADEYVDIGALNGIFVLGRSMGFIGHYLDQKRLKQGLYRHPWDDISYVLPEHMSM
B9: Vti1b (protein, UniProt O88384 1-232)
chain: MAASAASSEHFEKLHEIFRGLLEDLQGVPERLLGTAGTEEKKKLVRDFDENQQEANETLAEMEEELRYAPLTFRNPMMSKLRNYRKDLAKLHREVRSTPLTAAPGGRGDLKYGTYTLENEHLNRLQSQRALLLQGTESLNRATQSIERSHRIATETDQIGTEIIEELGEQRDQLERTKSRLVNTNENLSKSRKILRSMSRKVITNKLLLSVIILLELAILVGLVYYKFFRHH

Assays:
[1] = target: TET1 (ten-eleven translocation 1), endogenous in oligodendrocyte lineage cells (mouse (endogenous in primary mouse OPCs and OLs)) (UniProt Q3URK3); experiment: affinity purification with mass spectrometry; IP of endogenous TET1 (rabbit anti-TET1, Catch and Release kit) from RIPA lysate of mouse mature OLs; normal IgG as control; SDS-PAGE, in-gel trypsin digestion, LC-MS/MS; done twice
[2] = target: TET1 (ten-eleven translocation 1), endogenous in oligodendrocyte lineage cells (mouse (endogenous in primary mouse OPCs and OLs)) (UniProt Q3URK3); experiment: affinity purification with mass spectrometry; IP of endogenous TET1 (rabbit anti-TET1, Catch and Release kit) from RIPA lysate of purified mouse OPCs; normal IgG as control; SDS-PAGE, in-gel trypsin digestion, LC-MS/MS; done twice

Molecule | binding [1] | binding [2]
histone deacetylases 1 (HDAC1), endogenous in oligodendrocyte lineage cells (from UniProt O09106 1-482) | binds | 
Golga7 (from UniProt Q91W53 1-137) |  | binds
Got1 (from UniProt P05201 1-413) |  | binds
Tnx2 (from UniProt P97493) |  | binds
Rplp1 (from UniProt P47955 1-114) | binds | 
Smarca5 (from UniProt Q91ZW3 1-1051) | binds | 
Dnajb1 (from UniProt Q9QYJ3 1-340) | binds | 
Vamp3 (from UniProt P63024 1-103) |  | binds
B1 |  | binds
B2 |  | binds
B3 |  | binds
B4 |  | binds
B5 | binds | 
B6 | binds | 
B7 |  | binds
B8 |  | binds
B9 |  | binds
